Assay results published in patent publication US20260193375A1.
These are yes or no findings as the source states them, for the method shown.

The chains behind the UniProt entries cited, without tags or fusion partners. Residues count along the entry.
UniProt P02769, residues 25-607: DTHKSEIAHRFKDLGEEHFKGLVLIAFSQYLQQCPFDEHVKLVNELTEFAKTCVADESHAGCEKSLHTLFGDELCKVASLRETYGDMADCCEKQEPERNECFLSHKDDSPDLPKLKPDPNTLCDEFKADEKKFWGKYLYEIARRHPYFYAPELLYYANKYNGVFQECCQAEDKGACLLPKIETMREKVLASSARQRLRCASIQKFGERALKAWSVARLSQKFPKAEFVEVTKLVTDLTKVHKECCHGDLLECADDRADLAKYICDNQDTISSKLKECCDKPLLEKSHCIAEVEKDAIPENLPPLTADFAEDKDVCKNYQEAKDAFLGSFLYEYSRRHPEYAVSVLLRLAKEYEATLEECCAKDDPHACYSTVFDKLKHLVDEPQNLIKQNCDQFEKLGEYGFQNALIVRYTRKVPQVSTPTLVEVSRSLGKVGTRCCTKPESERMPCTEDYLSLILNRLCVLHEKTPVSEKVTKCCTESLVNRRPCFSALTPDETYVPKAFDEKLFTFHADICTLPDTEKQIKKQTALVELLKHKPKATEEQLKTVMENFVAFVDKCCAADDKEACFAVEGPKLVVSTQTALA

B1: anti-LY6K antibody 3520 (antibody, V domains shown)
VH: QVQLVQSGSELKKPGASVKVSCKASGYTFTLYAMNWVRQAPGQGLEWMGWINTNTGNPTYAQGFTGRFVFSLDTSVSTAYLQISSLKAEDTAVYYCARTNWNSWGQGTMVTVSS
VL: DIQMTQSPSSLSASVGDRVTITCQASQDISNYLHWFQQKPGKAPKLLIYDASNLETGVPSRFSGSGSGTDFTFTIFSLQPEDIATYYCQHYDNLPLTFGGGTKVEIK
B2: anti-LY6K antibody 3741 (antibody, V domains shown)
VH: EVQLVESGGGLVKPGGSLRLSCAASGFTFSSYSMNWVRQAPGKGLEWVSSISSSSNYIYYVDSVKGRFTTSRDNAKNSLYLQMNSLRAEDTAVYYCARQEATGNNYYYYYMDVWGKGTTVTVSS
VL: DIQMTQSPSSLSASVGDRVTITCRASQSISNYLNWYQQNLGKAPKVLIYAASSLQSGVPSRFSGSGSGTDFTLTISSLQPEDFATYYCQQTYSTPITFGQGTRLEIK
B3: anti-LY6K antibody 3501 (antibody, V domains shown)
VH: EVQLVESGGGLVQPGRSLRLSCAASGFTFDDYAMHWVRQAPGKGLEWVSGISWNSGTIDYADSVKGRFTISRDNAKNSLYLQVNSLRAEDTALYYCAKDSPQKDYYYMDVWGKGTTVTVSS
VL: DIQMTQSPSSLSASVGDRVTITCRTSQSISSYLNWYQQKPGKAPNLLIYAASSLQSGVPSRFSGSGSGTDFTLTISSLQPEDFATYYCQQSYITPITFGQGTRLEIK
B4: anti-LY6K antibody 3503 (antibody, V domains shown)
VH: EVQLVESGGGLVKPGGSLRLSCAASGFIFSSYSMNWVRQAPGKGLEWVSSISSSSSYIYYADSEKGRFTISRDNAKNSLYLQMNSLRAEDTAVYYCARQSTVVTSDYYYYYMDVWGKGTTVTVSS
VL: DIQMTQSPSSLSASVGDRVTITCRASQSISNYLNWYQQKPGKAPNLLIYAASSLQSGVPSRFSGSGSGTDFTLTISSLQPEDFATYYCQQSYSPPITFGQGTRLEIK
B5: anti-LY6K antibody 3063 (antibody, V domains shown)
VH: EVQLVESGGGLVKPGRSLRLSCAASGFTFDDFAMHWVRQAPGKGLEWVSGLSWKGHTLGYADSVKGRFTFSRDSAKNSLYLQMNSLRAEDTALYYCAKDTRSGLDYWGQGTLVTVSS
VL: DIVMTQTPLSSPVTLGQPASISCRSSQSLEHSDGNTYLSWLQQRPGQPPRLLIYKISNRFSGVPDRFSGNGAGTDFTLKISRVEAEDVGIYYCMQATEFPFTFGGGTKVEIK
B6: anti-LY6K antibody 3074 (antibody, V domains shown)
VH: EVQLVESGGGLVHPGRSLRLSCAASGFTFDDYAMHWVRQAPGKGLEWVSGISWKTNKIDYADSVKGRFTTSRDNAKNSLYLQMNSLRTEDTAFYYCAKDRREMTFDIWGQGTMVTVSS
VL: DIVMTQTPLSSPVTLGQPASISCRSSQSLEHSNGNTYLSWLQQRPGQPPRLLIYKISNRFSGVPDRFSGSGAGTDFTLKISRVEAEDVGIYYCMQATQFPLTFGGGTKVEIK
B7: anti-LY6K antibody 3035 (antibody, V domains shown)
VH: EVQLVESGGGLVQPGGSLKLSCAASGFTFSDSTLHWVRQASGKGLEWVGRIRSKANSYATAYAASVKGRFTISRDDSKNTAYLQMNSLKTEDTAVYYCHNWSYGYWGQGTLVTVSS
VL: QTVVTQEPSLTVSPGGTVTLTCASSTGAVTSYYYPNWFQQKPGQAPRTVIYSTTNKHSWTPARFSGSLLGGKAALTLSGVLPEDEADYYCLLFYGGAYVFGTGTKVTVL
B8: anti-LY6K antibody 3082 (antibody, V domains shown)
VH: EVQLVESGGGLVKPGGSLRLSCAASGFTFSSSSMNWVRQAPGKGLEWVSSISRSSYYIYYADSVEGRFTISRDNAKNSLYLQMNSLRAEDTAVYYCAKIGSSSEGVEDYYYYYYMDVWGKGTTVTVSS
VL: DIQMTQSPSSLSASVGDRVTITCRASQNINSYLNWYQQKPGKAPKLLIYAASSLQSGVPSRFSGSGSGTDFTLTISSLQPEDFATYYCHQSYSTPLTFGGGTKVEIK
B9: anti-LY6K antibody 3719 (antibody, V domains shown)
VH: EVQLVESGGGLVQPGRSLRLSCTASGFTFNDYAMHWVRQAPGKGLEWVSGISWNSNNIDYADSVKGRFTISRDNAKNSLYMQMNSLRAEDTALYYCAKDGPGTTNDAFDIWGQGTMVTVSS
VL: DIQMTQSPSSLSASVGDRVTITCRASHSISSYLNWYQQKPGKAPKLLIYAASSLQSGVPSRFSGSGSGTDFTLTISSLQPEDFATYYCHQGYSTPLTFGGGTKVEIK
B10: anti-LY6K antibody 3785 (antibody, V domains shown)
VH: QVQLQQSGPGLVKPSQTLSLTCAISGDSVSSNSAAWNWIRQSPSRGLEWLGRTYFRSKWNNDYTLSVKNRITINPDTSKNHFSLQLNSVTPEDTAVYYCAGGGYCNRTYCPDVFDIWGQGTMVTVSS
VL: DIQMTQSPSSLSASVGDRVTFTCRSSQSISSYLNWYQQKPGKAPNLLIYVASTLQSGVPSRFSGSGSGTDFTLTISSLQPEDFATYYCQQSYSIPLTFGGGTKVEIK

Target: BSA (bovine) (UniProt P02769)
Test: ELISA, antigen coated on the plate, antibody as human IgG1, anti-human F(ab)2 HRPO

binding, no binding (tested: 10 µg/ml):
B1
B2
B3
B4
B5
B6
B7
B8
B9
B10
